# Test results from PubChem BioAssay AID588499 (NMMLSC, 2011).
# Hit rate of the full screen: of about 360,000 compounds, about 610 (0.17%) were called active. This list was built around the results that the source calls inconclusive (neither active nor inactive); the mix of calls is not that of the screen. No stated cut-off is given here; in the data, active means inhibition above about 30%; inconclusive means no clear call, values can overlap the other calls; inactive means below that.
# Tested on: Botulinum neurotoxin type A light chain protease (Clostridium botulinum A str. ATCC 3502)
# Test: blockers of BoNT/A LC substrate cleavage – biochemical, flow cytometry, MLPCN library, primary screen (AID 588499); further: plate controls were buffer without enzyme for full effect and enzyme alone for no effect
# Settings: multiplex microsphere protease substrate cleavage, at 10 µM, hits give high values
row,SMILES,inhibition
1,COc1cc(NC(=O)CCn2c(=S)[nH]c3ccccc3c2=O)cc(OC)c1OC,inactive: 0.1%
2,CC(C)(CC(=O)O)CC(=O)Nc1ccc(Cl)c(Cl)c1,inconclusive: -21.3%
3,Cc1occc1C(=O)NNC(=S)NCC(C)C,inconclusive: -1.2%
4,Cc1cc(NCCCn2ccnc2)n2ncc(-c3ccc(Cl)cc3)c2n1,inconclusive: 1.4%
5,O=S(=O)(NCc1c(Cl)cccc1Oc1ccccc1)c1ccccc1,inconclusive: -10.3%
6,CC(=O)c1sc(C(=O)O)c(-c2ccco2)c1-c1ccco1,inconclusive: 28.3%
7,COc1ccccc1-c1c(C)oc2cc(OC(=O)c3ccco3)ccc2c1=O,inconclusive: -1%
8,COc1cc(C(=O)N(Cc2ccco2)Cc2cc3ccccc3[nH]c2=O)cc(OC)c1OC,inconclusive: -2%
9,COc1ccccc1NS(=O)(=O)c1cc(NC(=O)CN2C(=O)NC3(CCCC3)C2=O)ccc1C,inactive: 1.7%
10,CCOC(=O)c1nnn2c1nc(N1CCN(c3ccccc3)CC1)c1ccccc12,inconclusive: 3.7%
11,Clc1ccc(SCc2nc3ccccc3[nH]2)cc1,inconclusive: 3.7%
12,Cn1ncc(Br)c1C(=O)Nc1c(F)c(F)cc(F)c1F,inconclusive: 1%
13,CCOC(=O)CC(=O)CSc1ccc2nnc(-c3cccc(F)c3)n2n1,inconclusive: -1.8%
14,O=C(CNC(=O)c1ccc(OC(F)F)cc1)NC1CCCc2ccccc21 (configuration not stated),inactive: 3.2%
15,Cc1cccc(N2C(=O)CC(N3CCN(c4cccc(C(F)(F)F)c4)CC3)C2=O)c1 (configuration not stated),inconclusive: -0.2%
16,O=C(NCc1ccncc1)C12CC3CC(CC(C3)C1)C2,inactive: 0%
17,CN(C)c1ccc2nc3ccc(=[N+](C)C)cc-3sc2c1,active: 31.5%
18,COc1ccc(-c2cc(=O)n(-c3nc4ccccc4[nH]3)[nH]2)cc1,inconclusive: 1.3%
19,Cc1nc2[nH]c(=O)c3c(n2n1)NC1=C(C(=O)CC(C)(C)C1)C3c1ccc(F)cc1 (configuration not stated),inactive: 0.4%

# Fetched one by one from the list above:
row,SMILES,inhibition
4,Cc1cc(NCCCn2ccnc2)n2ncc(-c3ccc(Cl)cc3)c2n1,inconclusive: 1.4%
13,CCOC(=O)CC(=O)CSc1ccc2nnc(-c3cccc(F)c3)n2n1,inconclusive: -1.8%

# Going on with the list:

row,SMILES,inhibition
1,Cc1ccc(S(=O)(=O)Nc2ncc(C(F)(F)F)cc2Cl)cc1,inactive: 0.3%
2,C=CCN1C(=O)[C@]2(c3ccccc31)C1CCCC=C1C(C#N)=C(N)C2(C#N)C#N (some centres not stated),inconclusive: -0.2%
3,CCOc1ccc2c(c1)n(CO)c(=S)n2CO,inconclusive: 0.6%
4,Cc1nnc(NC(=O)CCN2C(=O)C3CC=CCC3C2=O)s1 (configuration not stated),inactive: -0.6%
5,Cn1nc(-c2ccccc2)cc1NC(=O)[C@@H]1O[C@H](CO)[C@H](O)[C@H](O)[C@H]1O,inactive: -0.4%
6,Cc1ccc(/C=N/NC(=O)c2nnn(-c3nonc3N)c2CSc2ccccc2)o1,inactive: -2%
7,CN(C)/C=C/C(=O)c1nn(-c2ccc(F)cc2)ccc1=O,inconclusive: 13.6%
8,Cc1cccc(NC(=O)c2sc3nc(-c4ccc(F)cc4)cn3c2C)n1,inconclusive: 4.7%
9,CCN(CC(=O)Nc1ccc2c(c1)OCCO2)Cc1cc(=O)oc2c(C)c(C)ccc12,inconclusive: 6.2%
10,Cn1nc(C(C)(C)C)cc1C(=O)NNC(=O)c1ccc(C(F)(F)F)cc1,inconclusive: 0.1%
11,COCC(C)NC(=O)C1CCN(S(=O)(=O)c2ccc3ccccc3c2)CC1 (configuration not stated),inconclusive: -6.3%
12,CSc1ccc(NC(=O)N2CCN(c3nc4ccccc4s3)CC2)cc1,inconclusive: -5.7%
13,COc1cc(Br)cc2cc(C(=O)NCC3CCCO3)c(=O)oc12 (configuration not stated),inconclusive: 0.2%
14,CCC(C)(C)n1nnnc1C(c1cc2cc(C)ccc2[nH]c1=O)N1CCCC1 (configuration not stated),inconclusive: 8.2%
15,CN(C)c1ccc(NC(=O)CCN2C(=O)c3cccc([N+](=O)[O-])c3C2=O)cc1,inconclusive: 5.2%
16,CCOC(=O)N1CCN(Cc2nc3c(c(=O)[nH]c(=O)n3C)n2Cc2cc(C)ccc2C)CC1,inconclusive: 2.3%
17,N#Cc1sc2nc(-c3cccs3)cc(-c3ccc(Cl)cc3)c2c1N,inconclusive: 13.6%
18,CCOC(=O)NCc1ccc2c(c1)cc(C)n2C,active: 41.3%
19,O=C(CSc1nc2ccc([N+](=O)[O-])cc2[nH]1)NC1CCCCC1,inconclusive: 2%

# Single values from above.
# Under inhibition, Cn1nc(-c2ccccc2)cc1NC(=O)[C@@H]1O[C@H](CO)[C@H](O)[C@H](O)[C@H]1O is entered as inactive: -0.4%
# Under inhibition, CCOC(=O)N1CCN(Cc2nc3c(c(=O)[nH]c(=O)n3C)n2Cc2cc(C)ccc2C)CC1 is entered as inconclusive: 2.3%

# Later entries.

row,SMILES,inhibition
1,COc1ccc(C(=O)CSc2nnc(CN3CCCCC3)n2-c2ccc(F)cc2)cc1OC,inactive: -0.5%
2,O=C(NCc1ccccn1)c1cc(S(=O)(=O)N2CCN(c3ccccc3)CC2)ccc1Cl,inconclusive: -0.7%
3,Cc1ccc(Cn2c(=O)c3ccccc3n3c(SCC(=O)N4CCCCC4C)nnc23)cc1 (configuration not stated),inconclusive: 4.7%
4,Cc1ccc(N2C(=O)[C@@H]3C(c4cccnc4)=NO[C@@H]3C2=O)c(C)c1,inconclusive: 26.3%
5,Cc1ccsc1CNC(=O)C1(C)CCN1C(C)C (configuration not stated),inactive: -0.5%
6,CN(C)c1ccc(CNS(=O)(=O)c2ccc3c(c2)NC(=O)CS3)cc1,inactive: 0%
7,COC(=O)C(NC(C)=O)(Nc1cccc(C)n1)C(F)(F)F (configuration not stated),inconclusive: -49.5%
8,CCCCCn1c(SCc2ccncc2)nc2cc(C(=O)NCc3ccco3)ccc2c1=O,inconclusive: 4.6%
9,O=S(=O)(NNc1nccc(C(F)(F)F)n1)c1cccc(Cl)c1Cl,inconclusive: -41.8%
10,O=[N+]([O-])c1ccc(-c2nc(NCC3CCCO3)c3ccccc3n2)cc1 (configuration not stated),inconclusive: -47.5%
11,O=C(OCC#CCSc1nnc(-c2ccccc2)o1)c1cccs1,inactive: -1.8%
12,CSc1ccc(CN2CCC(n3nccc3NC(=O)c3ccccc3C)CC2)cc1,inactive: -3.2%
13,C1CCN(Cc2nnnn2C2CCCC2)CC1,inconclusive: 0.7%
14,Nn1c(SCC(=O)Nc2ccc(F)cc2)nnc1C1CCCCC1,inconclusive: 0.9%
15,COc1cc(/C=C2/SC(=S)N(CC(=O)Nc3cccnc3)C2=O)cc(OC)c1OC,active: 31.2%
16,CCOc1ccc(CC(=O)Nc2nccs2)cc1,inactive: -0.6%
17,COc1cc2nc(SCc3ccc(F)cc3)n(Cc3cccs3)c(=N)c2cc1OC,inconclusive: -0.1%
18,Cn1c(-c2cc3c(C(F)(F)F)nn(C)c3s2)n[nH]c1=S,inactive: 0.2%
19,CCc1nc2ccc(C(=O)NCc3ccccc3OC)cn2c1N(CC)Cc1cccc(Br)c1,inactive: -0.3%
